Reference: patent US8097252B2, “Methods and compositions for administering therapeutic and diagnostic agents” (Immunomedics, Inc., priority 2003, dated 2012)
Entries after “also recorded” stand apart in the source; their conditions may differ. Part of at least one peptide drawing is inferred or uncertain, most often the ends. Starred links: 1 amine or outer side, 2 acyl side, 3 side chain; linkers in the order of their positions; H or OH if unused. Non-standard residues stand in square brackets, D forms with d. Residues, ends and D or L forms follow the SMILES beside them. Groups on a side chain read outwards from the residue. *: point of attachment. DTPA = O=C(O)CN(CCN(CC(=O)O)CC(=O)O)CCN(CC(=O)O)CC(=O)*; NH(2-(imidazol-4-yl)ethyl) = c1ncc(CCN*)[nH]1; Suc = O=C(CCC(=O)[*:2])[*:1]

What was measured:
m679×hMN14 = assay: IMP 272 antibody binding, size exclusion HPLC; conditions: 111In-labeled peptide, size exclusion and reverse phase chromatograms
m734×hMN14 = assay: IMP 272 antibody binding, size exclusion HPLC; conditions: 111In-labeled peptide, size exclusion and reverse phase chromatograms

SMILES: C[C@H](NC(=O)[C@H](CCC(N)=O)NC(=O)CN(CCN(CCN(CC(=O)O)CC(=O)O)CC(=O)O)CC(=O)O)C(=O)N[C@@H](CCCCNC(=O)CNC(=O)CCC(=O)NCCc1cnc[nH]1)C(=O)N[C@H](Cc1ccc(O)cc1)C(=O)N[C@@H](CCCCNC(=O)CNC(=O)CCC(=O)NCCc1cnc[nH]1)C(N)=O [IMP 272, DTPA-Gln-Ala-Lys(HSG)-D-Tyr-Lys(HSG)-NH2] ({DTPA}-QAK([Gly-Suc-NH(2-(imidazol-4-yl)ethyl)])[dY]K([Gly-Suc-NH(2-(imidazol-4-yl)ethyl)])-NH2)
- binding to hMN-14×679 (m679×hMN14) (m679×hMN14): can bind; also recorded: bound well
- binding to hMN-14×m734 (m734×hMN14) (m734×hMN14): can bind; also recorded: bound well
